Measured values from the supplement of paper PMC11150407.
Among all 2,100 compounds or so, about 180 (8.6%) showed an effect of 50% or more. This is one part of the list.

Test system: MOLM1 and UCSD/AML1 (averaged)
Experiment: cell viability relative to DMSO control (POC); higher = less growth inhibition
Conditions: 1 µM; 72 h
Protocol: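 Primary viability screen in the 3q26 EVI1-high AML cell lines MOLM1 and UCSD/AML1 (1.5e3 cells/well, 384-well), compounds at 1 uM for 72 h. ATP CellTiter-Glo read-out given as percent of viable cells over DMSO control (POC), averaged over duplicates. DMSO was the negative control and 5 uM etoposide the positive control. This mapping covers the MicroSource Spectrum and Selleck anticancer libraries (drug names).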

| SMILES | cell viability |
| --- | --- |
| COc1cc(Cc2cnc(N)nc2N)cc(OC)c1OC | 92% |
| CC1CCC(C(C)C)C(O)C1 (centres undefined) | 99.3% |
| C[C@@H](Oc1cc(-n2cnc3ccc(CN4CCN(C)CC4)cc32)sc1C(N)=O)c1ccccc1C(F)(F)F | 19.5% |
| O=C(CCCN1CCC(O)(c2ccc(Br)cc2)CC1)c1ccc(F)cc1 | 78.4% |
| CNCC[C@H](Oc1cccc2ccccc12)c1cccs1 | 103% |
| CC1(COc2ccc3c(c2)ncn3-c2ccc3cccc(N4CCC(N)CC4)c3n2)COC1 | 29.2% |
| CO[C@@]1(NC(=O)Cc2cccs2)C(=O)N2C(C(=O)O)=C(COC(N)=O)CS[C@@H]21 | 111% |
| COc1cc2c(cc1OC)C(=O)C(CC1CCN(Cc3ccccc3)CC1)C2 (centres undefined) | 85.7% |
| CC(=O)OCC(=O)[C@H]1CC[C@H]2[C@@H]3CCC4=CC(=O)CC[C@]4(C)[C@H]3CC[C@]12C | 99.5% |
| Oc1cccc(-c2nc(N3CCOCC3)c3oc4ncccc4c3n2)c1 | 25.7% |
| CC(CN(C)C)CN1c2ccccc2Sc2ccccc21 (centres undefined) | 89.5% |
| CC1(C)[C@@H](OC(=O)CCC(=O)O)CC[C@]2(C)[C@H]3C(=O)C=C4[C@@H]5C[C@@](C)(C(=O)O)CC[C@]5(C)CC[C@@]4(C)[C@]3(C)CC[C@@H]12 | 94.5% |
| N=C(N)NCCN1CCCCCCC1 | 103% |
| C=CCOC(Cn1ccnc1)c1ccc(Cl)cc1Cl (centres undefined) | 94% |
| O=C(/C=C/c1ccc(O)c(O)c1)O[C@@H]1C[C@](O)(C(=O)O)C[C@@H](O)[C@H]1O | 98.2% |
| CC(C)C[C@H](NC(=O)CNC(=O)c1cc(Cl)ccc1Cl)B1OC(=O)C(CC(=O)O)(CC(=O)O)O1 | 1.16% |
| CC[C@@H](CO)NCCN[C@@H](CC)CO | 105% |
| CCN(CC)CCCCNc1ncc2cc(-c3cc(OC)cc(OC)c3)c(NC(=O)NC(C)(C)C)nc2n1 | 36.8% |
| Nc1ccccc1C(=O)CC(N)C(=O)O (centres undefined) | 98.1% |
| CCCOc1ccc(C(=O)OCCN(CC)CC)cc1N | 89.5% |
| Cc1cc(O)c2c(O)c3c(O)cccc3cc2c1 | 122% |
| C=CCSCC1Nc2cc(Cl)c(S(N)(=O)=O)cc2S(=O)(=O)N1 (centres undefined) | 91.6% |
| c1ccc(CN(CC2=NCCN2)c2ccccc2)cc1 | 94.8% |
| CC1(C)CC2C1CCC1(C)OC2(C)CCC1O (centres undefined) | 91.4% |
| OCc1ccccc1O | 98.8% |

| SMILES | cell viability |
| --- | --- |
| COc1c(N2CCNC(C)C2)c(F)cc2c(=O)c(C(=O)O)cn(C3CC3)c12 (centres undefined) | 92.6% |
| O=C(c1ccccc1)c1ccc2n1CCC2C(=O)O (centres undefined) | 96.7% |
| CCOC(=O)[C@@](C)(N)Cc1ccc(O)c(O)c1 | 103% |
| FC(F)(F)COCC(F)(F)F | 88.8% |
| CCN[C@@H]1C[C@H](N)[C@@H](O[C@H]2OC(CN)=CC[C@H]2N)[C@H](O)[C@H]1O[C@H]1OC[C@](C)(O)[C@H](NC)[C@H]1O | 99.5% |
| C=CCCCCCCCCC(=O)[O-].C=CCCCCCCCCC(=O)[O-].[Zn+2] | 101% |
| COC(=O)Nc1nc2cc([S+]([O-])c3ccccc3)ccc2[nH]1 (centres undefined) | 50.5% |
| O=c1cc(-c2ccccc2)oc2cccc(O)c12 | 119% |
| CNc1ccccc1C(=O)N1CCc2c([nH]c3ccccc23)C1=O | 88.5% |
| COc1ccc2c(=O)c(CC(=O)O)coc2c1 | 98.6% |
| Nc1c2c(nc3ccccc13)CCCC2O (centres undefined) | 99.7% |
| COc1ccccc1OCC(O)COC(N)=O (centres undefined) | 100% |
| CO/N=C(\C(=O)N[C@@H]1C(=O)N2C(C(=O)OC(C)OC(C)=O)=C(COC(N)=O)CS[C@H]12)c1ccco1 (some centres undefined) | 116% |
| O=c1ccn([C@@H]2O[C@H](COP(=O)(O)OP(=O)(O)OP(=O)(O)O)[C@@H](O)[C@H]2O)c(=O)[nH]1 | 107% |
| Cc1nc(-c2ccc(OCC(C)C)c(C#N)c2)sc1C(=O)O [Febuxostat (Uloric)] | 99.3% |
| CN(C)c1ccc(C(=C2C=CC(=[N+](C)C)C=C2)c2ccc(N(C)C)cc2)cc1 | 0.942% |
| CC(=O)[C@H]1CC[C@H]2[C@@H]3CC=C4C[C@@H](O)CC[C@]4(C)[C@H]3CC[C@]12C | 108% |
| Cc1nc(Nc2ncc(C(=O)Nc3c(C)cccc3Cl)s2)cc(N2CCN(CCO)CC2)n1 | 29.5% |
| CCN(CCO)CCCC(C)Nc1ccnc2cc(Cl)ccc12 (centres undefined) | 97.1% |
| CON | 109% |
| CCCCN1CCCCC1C(=O)Nc1c(C)cccc1C (centres undefined) | 100% |
| CCOC(=O)NNc1nncc2ccccc12 | 107% |
| CC1(C)[C@@H](O)CC[C@]2(C)[C@H]3C(=O)C=C4[C@H]5C[C@@](C)(C(=O)O)CC[C@]5(C)CC[C@@]4(C)[C@]3(C)CC[C@@H]12 [18alpha-GLYCYRRHETINIC ACID] | 95.3% |
| CC(=O)O[C@@H]1CC2C(C)(CC[C@H](O)C2(C)C)C2CC[C@]3(C)C(=CC(=O)O[C@H]3c3ccoc3)C21C (stereo partly drawn) [3beta-HYDROXYDEOXODIHYDRODEOXYGEDUNIN] | 106% |

11 of these compounds in another layout:
SMILES	cell viability
CNCC[C@H](Oc1cccc2ccccc12)c1cccs1	103%
O=C(/C=C/c1ccc(O)c(O)c1)O[C@@H]1C[C@](O)(C(=O)O)C[C@@H](O)[C@H]1O	98.2%
CCCOc1ccc(C(=O)OCCN(CC)CC)cc1N	89.5%
c1ccc(CN(CC2=NCCN2)c2ccccc2)cc1	94.8%
CC1(C)CC2C1CCC1(C)OC2(C)CCC1O (centres undefined)	91.4%
CCN[C@@H]1C[C@H](N)[C@@H](O[C@H]2OC(CN)=CC[C@H]2N)[C@H](O)[C@H]1O[C@H]1OC[C@](C)(O)[C@H](NC)[C@H]1O	99.5%
Nc1c2c(nc3ccccc13)CCCC2O (centres undefined)	99.7%
COc1ccccc1OCC(O)COC(N)=O (centres undefined)	100%
CON	109%
CCCCN1CCCCC1C(=O)Nc1c(C)cccc1C (centres undefined)	100%
CC1(C)[C@@H](O)CC[C@]2(C)[C@H]3C(=O)C=C4[C@H]5C[C@@](C)(C(=O)O)CC[C@]5(C)CC[C@@]4(C)[C@]3(C)CC[C@@H]12 [18alpha-GLYCYRRHETINIC ACID]	95.3%
